In this experiment the target is Flag-2xStrepII-tagged (FS2) AEBP2 (mouse) (UniProt Q9Z248). Kind of experiment: co-IP; mESC lines stably expressing FS2-AEBP2 or FS2-C17ORF96 homologue; immunoprecipitation with the Flag-2xStrepII (FS2) antibody or the JARID2 antibody, immunoblot.

Protein sequences, listed by entry. Tags and fused reporters are not part of them. Lines headed by an entry give the natural chain unless they say otherwise; changes in a name come on top.
UniProt Q9Z248: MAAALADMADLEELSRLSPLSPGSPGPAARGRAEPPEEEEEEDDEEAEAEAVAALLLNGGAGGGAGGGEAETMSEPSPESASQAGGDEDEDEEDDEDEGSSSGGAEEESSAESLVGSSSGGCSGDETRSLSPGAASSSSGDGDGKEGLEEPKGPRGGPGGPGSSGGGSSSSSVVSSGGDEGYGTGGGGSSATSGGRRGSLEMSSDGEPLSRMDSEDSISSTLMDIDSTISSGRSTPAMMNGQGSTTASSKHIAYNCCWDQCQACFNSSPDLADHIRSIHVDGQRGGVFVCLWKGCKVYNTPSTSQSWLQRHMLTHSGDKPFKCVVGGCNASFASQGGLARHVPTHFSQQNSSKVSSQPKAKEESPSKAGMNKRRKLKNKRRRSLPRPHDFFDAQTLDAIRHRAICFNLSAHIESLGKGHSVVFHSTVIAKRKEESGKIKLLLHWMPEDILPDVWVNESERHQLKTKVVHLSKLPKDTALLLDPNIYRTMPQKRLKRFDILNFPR
UniProt Q02395: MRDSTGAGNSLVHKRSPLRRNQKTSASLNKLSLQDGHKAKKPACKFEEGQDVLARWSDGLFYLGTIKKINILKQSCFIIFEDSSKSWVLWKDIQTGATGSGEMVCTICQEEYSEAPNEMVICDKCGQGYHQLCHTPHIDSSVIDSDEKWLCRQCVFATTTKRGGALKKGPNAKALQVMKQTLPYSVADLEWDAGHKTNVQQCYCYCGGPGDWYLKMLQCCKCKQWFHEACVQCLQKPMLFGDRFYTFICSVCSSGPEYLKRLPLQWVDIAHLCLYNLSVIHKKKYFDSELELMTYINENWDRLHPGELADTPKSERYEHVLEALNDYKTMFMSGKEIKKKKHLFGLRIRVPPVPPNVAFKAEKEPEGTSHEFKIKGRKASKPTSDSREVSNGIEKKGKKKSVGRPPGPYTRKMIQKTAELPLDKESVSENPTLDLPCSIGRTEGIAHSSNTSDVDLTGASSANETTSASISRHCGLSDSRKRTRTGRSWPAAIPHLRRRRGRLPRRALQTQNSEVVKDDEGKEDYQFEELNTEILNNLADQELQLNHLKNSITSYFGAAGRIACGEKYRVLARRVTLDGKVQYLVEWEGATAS

Results are given in words; binding and its absence hold for the method and conditions named. Binding seen in cells or lysates may run through a third protein.

On to “PCL2 (MTF2), endogenous (from UniProt Q02395 1-593)”, for which the binding entry is listed as “no binding”.

The values above are taken from article PMC5004903.
